These are yes or no findings as the source states them, for the method shown. In cells and extracts the contact can be indirect. Some results given as binding are weak or reduced against the parent protein; the word gives no strength. Where a sequence is shown, tags or fusion partners need not be part of it.
Biological target: T1, CTCF (mouse (endogenous in testis)) (UniProt Q61164)
T1 sequence: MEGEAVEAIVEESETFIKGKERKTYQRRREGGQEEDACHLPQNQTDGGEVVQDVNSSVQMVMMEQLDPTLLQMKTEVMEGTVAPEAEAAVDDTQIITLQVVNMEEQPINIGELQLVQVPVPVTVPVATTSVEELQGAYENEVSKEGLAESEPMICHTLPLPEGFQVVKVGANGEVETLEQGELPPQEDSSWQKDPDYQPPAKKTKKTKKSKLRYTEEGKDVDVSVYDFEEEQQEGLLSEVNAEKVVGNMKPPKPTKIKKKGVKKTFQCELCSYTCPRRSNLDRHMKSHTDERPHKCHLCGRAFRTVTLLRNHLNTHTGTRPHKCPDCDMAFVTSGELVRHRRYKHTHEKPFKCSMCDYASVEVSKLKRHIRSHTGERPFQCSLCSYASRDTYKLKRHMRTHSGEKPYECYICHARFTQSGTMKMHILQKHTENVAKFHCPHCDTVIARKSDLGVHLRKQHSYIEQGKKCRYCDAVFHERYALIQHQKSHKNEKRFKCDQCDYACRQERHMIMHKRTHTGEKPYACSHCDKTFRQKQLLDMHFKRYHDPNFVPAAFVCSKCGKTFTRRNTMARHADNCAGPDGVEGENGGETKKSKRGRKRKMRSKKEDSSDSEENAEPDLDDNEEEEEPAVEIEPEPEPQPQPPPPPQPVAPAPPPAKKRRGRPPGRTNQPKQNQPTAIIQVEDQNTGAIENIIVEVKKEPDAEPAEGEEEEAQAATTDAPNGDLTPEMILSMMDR
Assay: co-IP; CTCF immunoprecipitated from mouse testis nuclear lysates (Pierce IP buffer, 1.5 mM MgCl2, 100 U/ml Benzonase, 4 °C), wild-type or FLAG-tagged REC8 mice; immunoblot with REC8 or FLAG antibody; normal rabbit IgG as negative control

B1: REC8 (protein, UniProt Q8C5S7 1-591)
chain: MFYYPNVLQRHTGCFATIWLAATRGSRLVKREYLNVNVVKTCEEILNYVLVRVQPPVAGLPRPRFSLYLSAQLQIGVIRVYFQQCQYLVEDIQHILEHLHRAQLRIRIDMEEADLPSLLLPNCLAMMETLEDAPEPFFGKMSVDPRLPSPFDIPQIRHLLEAATPEKTRKETLPEATPDPRKPDRTLATVQSPEVITLQEAEPIRMLQIEGEQDLPEISRGDLELLIAEKDDAILLEERQRGRLLRQRRASLPLDESREEPRALEGAGLVSALSPPAPAQVEGIQEALPGQVFPPEVQKMTGWEPGALLTEVTPPQELRLPAPPSTEKRLPSLQRPLPRRHRRRQLLFWDKETQISREKFEEQLQTGAHCWEYPVAQPPKRMLTSPAELFRTPTLSGWLPPELLGLWTHCAQVPQRMLRQRPQLETEETVEEERAADEEERRKTEALSEIEVLREAQEPSGPLMLSSELSLEAAEDEKSRTSLIPPEWWAWSEEGQPEPPALPMLPELPEVPMEMPPRPELSSEAVLRAVALKLQANKELDFSSLVPPLSPRKLASRVFYLLLVLSTQKILLVEQQKPYGPLLIRPGPKFP
  binding: binds

B2: FLAG-tagged REC8 (protein, UniProt Q8C5S7 1-591)
chain: B1 chain
  binding: binds

Reference: publication PMC13416154
